Measured values taken from PMC10907699.
These are yes or no findings as the source states them, for the method shown. In cells and extracts the contact can be indirect. Some binding calls cover weakened binding; strength is not graded here. Sequences can lack the tags named with a protein.

Molecular target: T1, FLAG-M1-tagged mouse AGR2 (mouse) (UniProt O88312)
T1 sequence: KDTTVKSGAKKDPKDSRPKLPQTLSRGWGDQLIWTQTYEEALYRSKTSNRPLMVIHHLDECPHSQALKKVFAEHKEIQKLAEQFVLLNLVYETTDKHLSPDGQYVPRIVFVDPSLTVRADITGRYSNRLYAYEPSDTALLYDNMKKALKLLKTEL
Experiment: co-IP; wild-type CHO-K1 cells over-expressing full-length IRE1β and FLAG-M1 AGR2; lysis with 20 mM NEM and 10 mM CaCl2; anti-FLAG-M1 affinity gel; eluates run reduced or non-reduced

B1: full-length mouse IRE1β (protein, UniProt Q9Z2E3 34-911)
chain: VRPESLLFVSTLDGSLHALNKQTGDLKWTVKDDPIIQGPMYVTEMAFLSDPADGSLYVLGTQKQQGLMKLPFTIPELVHASPCRSSDGVFYTGRKQDAWFVVDPESGETQMTLTTEGLSTPQLFIGRTQYTVSMHDLRTPALRWNTTYRRYSAPLLNGSPGKYMSHLTSCGMGLLLTVDPGSGIVLWTQDLGVPVTGIYTWHQDGLHQLPHLTLARDTLHFLVLRWGHIRLPASSYQDTATQFSSLDTQLLMTLYVGKEEAGFYVSKALVHAGVALVPRGLTLAPMDGPTTDEVTLQVSGEREGSPSTAVRYPSGSVALPSQWLLIGYHEPPPVLHTTMLRVHPIPGKVSAETRASEDLHAPPVFFELLNLRREDPELHPEEKASDSYPGLGSQDLLAATFTAILLGAWVLYLMRQQQQSPSAPAGPPDLSQDAQGQLSRDILQDQRRFQSPSEPAQPPHDPEAGQPTVVGKISFNPKDVLGRGAGGTFVFRGQFEGRAVAVKRLLRECFGLVRREVQLLQESDRHPNVLRYFCTEHGPQFHYIALELCQASLQEYVESPDLDRWGLEPTTVLQQMMSGLAHLHSLHIVHRDLKPANILMAGPDSQGQGRVVISDFGLCKKLPVGRCSFSLHSGIPGTEGWMAPELLQLPPDSPTSAVDIFSAGCVFYYVLSGGSHPFGESLYRQANILSGDPCLAQLQEETHDKVVALDLVRAMLSLLPQDRPSAGWVLAHPLFWSRAKELQFFQDVSDWLEKEPDQGPLVSALEAGSYKVVREDWHKHISAPLQADLKRFRSYKGTSVRDLLRAMRNKKHHYRELPAEVRQTLGQLPAGFIQYFTQRFPRLLLHTHRAMRTCASESLFLPYYPPALEARRPDATKS
binding: binds
